Source: paper doi:10.1101/438945
No constants are given. Whether binding was seen depends on the method and setting. Binding seen in cells or lysates may run through a third protein. These calls come from enrichment with a bait or labelling near it, and not all partners need be listed. Sequences can lack the tags named with a protein.

Molecular target: T1, PALB2-GFP (mouse, Palb2^GFP/GFP knock-in) (mouse (endogenous in mES cells)), Q3U0P1
T1 chain: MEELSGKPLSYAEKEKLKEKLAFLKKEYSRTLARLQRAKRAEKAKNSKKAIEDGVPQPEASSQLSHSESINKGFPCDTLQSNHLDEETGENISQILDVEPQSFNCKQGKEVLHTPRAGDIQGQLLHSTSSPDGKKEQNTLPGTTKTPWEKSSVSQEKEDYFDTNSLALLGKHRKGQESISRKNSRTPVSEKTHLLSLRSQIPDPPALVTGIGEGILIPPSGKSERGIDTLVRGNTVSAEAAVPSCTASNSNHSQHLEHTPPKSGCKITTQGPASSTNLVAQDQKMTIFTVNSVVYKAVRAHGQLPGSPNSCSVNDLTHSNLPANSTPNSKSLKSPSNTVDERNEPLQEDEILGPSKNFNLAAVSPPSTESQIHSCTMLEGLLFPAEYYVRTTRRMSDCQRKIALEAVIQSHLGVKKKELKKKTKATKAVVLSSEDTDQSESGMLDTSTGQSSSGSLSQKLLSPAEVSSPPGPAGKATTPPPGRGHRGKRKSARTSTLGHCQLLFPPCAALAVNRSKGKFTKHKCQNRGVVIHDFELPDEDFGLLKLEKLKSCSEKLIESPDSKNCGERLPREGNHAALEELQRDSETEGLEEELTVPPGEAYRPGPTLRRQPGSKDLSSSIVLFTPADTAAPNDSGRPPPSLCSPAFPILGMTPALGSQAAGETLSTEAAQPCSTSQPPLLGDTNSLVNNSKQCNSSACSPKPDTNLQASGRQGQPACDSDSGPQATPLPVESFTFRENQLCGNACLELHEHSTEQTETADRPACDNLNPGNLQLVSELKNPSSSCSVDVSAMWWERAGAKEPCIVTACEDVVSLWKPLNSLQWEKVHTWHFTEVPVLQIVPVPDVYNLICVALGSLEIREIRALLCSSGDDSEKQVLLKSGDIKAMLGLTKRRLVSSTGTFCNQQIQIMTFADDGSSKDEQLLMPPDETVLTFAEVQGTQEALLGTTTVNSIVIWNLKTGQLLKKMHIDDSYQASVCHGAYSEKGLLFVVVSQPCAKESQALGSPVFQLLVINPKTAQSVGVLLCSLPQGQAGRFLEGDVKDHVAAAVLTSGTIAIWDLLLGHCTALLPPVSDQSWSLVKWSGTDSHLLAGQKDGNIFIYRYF
Test: affinity purification with mass spectrometry
Conditions: remark: other sources report otherwise

binding: binds
B1: HSF2BP (mouse, endogenous in mES cells), Q9D4G2 1-338 (protein)
chain: MAATVGDGSGTEEACRNMESKEEFVKVRKKDLERLTTEVMQIRDFLPRILNGELLESFQKLKMVEKNLERKEQELEQLIMDREHFKARLETAQADSGREKKEKLALRQQLNEAKQQLLQQAEYCTQMGAVTCTLLWGVSSSEEVVKTILGGDKALKFFNITGQTMESFVKSLDGDVKEVDSDENQFVFALAGIVTNVAAIACGREFLVNSSRVLLDTMLQLLGDLKPGQCTKLKVLMLMSLYNVSINSKGLKYITESPGFIPLLWWLLSDPDAEVCLHTLRLIQSVVLEPDVFSKVASELQSSLPLQRILAMSKSRNSHLQSAAQELLEDLRALDCNV
